Assay results published in US8247533B2 (The United States of America, as represented by the …, priority 2007, dated 2012).

Tests used:
[1] = general procedure: Boc solid-phase peptide synthesis; 4-sulfamylbutyryl AM resin; HATU/DIEA; details: whole synthesis
[2] = general procedure: Boc solid-phase peptide synthesis; 4-sulfamylbutyryl AM resin (alkanesulfonamide safety-catch linker); HATU/DIEA; details: whole synthesis

Substance	isolated mass ([1]; scale 0.5 mmol) [mg]	isolated yield ([2]; based on Fmoc-aminoacyl resin, scale of the general procedure 0.36 mmol) [%]	crude mass ([1]; scale 0.36 mmol) [mg]	isolated mass [2] [mg]	final purity (method not given) ([2]; 1D 1H NMR, scale of the general procedure 0.36 mmol)	isolated yield ([2]; based on Fmoc-aminoacyl resin 2, scale of the general procedure 0.36 mmol) [%]	difficulty met ([2]; scale of the general procedure 0.36 mmol)
cyclo{[(D-Leu-L-Leu)4-(D-Leu-L-Pro-Gly)]2-	245	23					
HELM PEPTIDE1{V.[dP].G.V.[dV].V.[dV].V.[dV].V.[dV].V.[dP].G.V.[dV].V.[dV].V.[dV].V.[dV]}$PEPTIDE1,PEPTIDE1,1:R1-22:R2$$$V2.0 (SMILES CC(C)[C@@H]1NC(=O)CNC(=O)[C@H]2CCCN2C(=O)[C@H](C(C)C)NC(=O)[C@@H](C(C)C)NC(=O)[C@H](C(C)C)NC(=O)[C@@H](C(C)C)NC(=O)[C@H](C(C)C)NC(=O)[C@@H](C(C)C)NC(=O)[C@H](C(C)C)NC(=O)[C@@H](C(C)C)NC(=O)[C@H](C(C)C)NC(=O)CNC(=O)[C@H]2CCCN2C(=O)[C@H](C(C)C)NC(=O)[C@@H](C(C)C)NC(=O)[C@H](C(C)C)NC(=O)[C@@H](C(C)C)NC(=O)[C@H](C(C)C)NC(=O)[C@@H](C(C)C)NC(=O)[C@H](C(C)C)NC(=O)[C@@H](C(C)C)NC1=O)			431	170	≧95%	23	repeated chromatography on a C4, C8, or C18 column failed to completely remove the putative epimerized material

Some peptides are written in HELM: one residue between dots, names in brackets for other building blocks, links after the first $.
